We go through 1 molecule from US20100322941A1 (published 2010).

The target in assay [1] is NusA-cynomolgus IP-10 fusion protein (cynomolgus). The experiment in a line: ELISA (FIG. 7), NusA fusion proteins. (In an ELISA, binding on a coated surface is turned into a signal by an enzyme label.)
For assay [2] the target is unchanged. As to the kind of experiment: capture ELISA: NI-0801 coated, concentration range of NusA fusion protein, anti-NusA antibody.

Results are given in words; binding and its absence hold for the method and conditions named. Some entries that bind do so weakly or less than the wild type.

B1: NI-0801 (IgG1-formatted) (antibody, V domains shown)
VH: QVQLVESGGGVVQPGRSLRLSCAASGFTFSNSGIHWVRQAPGKGLEWVAVISYDGSNKYYADSVKGRFTISRDNSKNTLYLQMNSLRAEDTAVYYCARLRDNAEYTDYWGQGTLVTVSS
VL: NFMLTQPHSVSESPGKTVTISCTGSGGSIASNYVQWYQQRPGSSPTTVIYEDNQRPSGVPDRFSGSIDSSSNSASLTISGLKTEDEADYYCQSYDPLPVWVFGGGTKLTVLG
Turning to B1, the binding entry in assay [1] and in assay [2] was “binds” throughout.
